Measurements taken from patent US20020132776A1 (N-Zyme Biotech GmbH, priority 2000, published 2002).

Assay: general procedure: solution-phase peptide synthesis

With “tert-Butyloxycarbonyl-L-glutaminyl-L-glutaminyl-L-isoleucyl-L-valine” the step yield (late stage modification step) was 39%.

With “tert-Butyloxycarbonyl-L-glutaminyl-L-glutaminyl-L-isoleucyl-L-valine Methyl Ester” the step yield (coupling step) was 80%.

“γ-Aldehyde of tert-butyloxycarbonyl-L-glutaminyl-L-glutaminyl-L-isoleucyl-L-valine” showed a step yield (late stage modification step) of 25%.
